Assay: peptide synthesis
Settings: conjugation step

Row | Substance | conjugation yield [%]
1 | GLFYG-PEG-Vip068 | 18
2 | GLFYG-Vip068 | 11
